Test results from the supplement of paper PMC8256030.
Where a name gives a salt, the structure may show the parent alone. Some of the results follow. This data set is noisy: repeats of one test often differ as much as different tests do.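 HEK293T cells were given each compound shortly before transfection with a reporter in which red mCherry is followed by the SARS-CoV-2 frameshift element and then GFP in the −1 frame, so GFP appears only after frameshifting.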

tested on: HEK293T; test: percent viability (nuclei count) relative to control; higher = more viable cells; settings: 10 µM; 24 h

`CC(=O)OC1CN2CCC1CC2` (stereo not given) [aceclidine] was tested. Which percent viability did it give?
The percent viability was 40.4%.

With `O=c1cccc2n1C[C@@H]1CNC[C@H]2C1` as the compound, how does the percent viability read?
Its percent viability is 270%.

How did the percent viability turn out when `CN1CC[C@]23CCCC[C@H]2[C@H]1Cc1ccc(O)cc13` [levorphanol] was run?
The percent viability was 325%.

For `CO[C@@]12CC[C@@]3(C[C@@H]1[C@](C)(O)C(C)(C)C)[C@H]1Cc4ccc(O)c5c4[C@@]3(CCN1CC1CC1)[C@H]2O5` [Buprenorphine], which percent viability is on record?
The percent viability was 41.6%.

With `Cc1ncc(CNC(=O)N(CCCl)N=O)c(N)n1` [nimustine] as the compound, how does the percent viability read?
The percent viability was 247%.

For `CCC1(c2ccccc2)C(=O)NC(=O)N(C(=O)c2ccccc2)C1=O` (stereo not given) [benzobarbital], which percent viability is on record?
The percent viability was 118%.

For `CC(=O)N(C)c1cccc(-c2ccnc3c(C(=O)c4cccs4)cnn23)c1` [indiplon], which percent viability is on record?
Its percent viability is 188%.

With `C[N+]1(C)[C@@H]2C[C@@H](OC(=O)[C@H](CO)c3ccccc3)C[C@H]1[C@@H]1O[C@@H]12` as the compound, how does the percent viability read?
The percent viability was 185%.

With `CNCC(=O)c1ccc(O)c(O)c1` [adrenalone] as the compound, how does the percent viability read?
The percent viability was 314%.

Which percent viability does the source give for `CCNC1=Nc2ccc(Cl)cc2C(C)(c2ccccc2)O1` (stereo not given) [etifoxine] here?
The percent viability was 81.8%.

`c1ccc2nc(N3CCNCC3)ccc2c1` [quipazine] was tested. Which percent viability did it give?
The percent viability was 431%.

Which percent viability does the source give for `CC[C@@H](C)C(=O)O[C@H]1[C@H](O)[C@H]2[C@@H](CN3C[C@@H](C)CC[C@H]3[C@@]2(C)O)[C@@H]2C[C@]34O[C@]5(O)[C@@H](OC(=O)[C@@](C)(O)CC)CC[C@@]3(C)[C@@H]5[C@@H](OC(C)=O)[C@@H](OC(C)=O)[C@H]4[C@@]21O` here?
The percent viability was 419%.

For `CN=C1CN(O)C(c2ccccc2)=c2cc(Cl)ccc2=N1` [Libritabs], which percent viability is on record?
The percent viability was 209%.

With `CCOC(=O)C(c1c(O)c2ccccc2oc1=O)c1c(O)c2ccccc2oc1=O` [ethyl biscoumacetate] as the compound, how does the percent viability read?
The percent viability was 318%.

With `C[C@H](N)[C@H](O)c1ccc(O)c(O)c1` as the compound, how does the percent viability read?
Its percent viability is 163%.

`O=C1CC[C@@]2(O)[C@H]3Cc4ccc(O)c5c4[C@@]2(CCN3CC2CC2)[C@H]1O5` [naltrexone] was tested. Which percent viability did it give?
Its percent viability is 79.3%.

With `O=[N+]([O-])O[C@H]1CO[C@H]2[C@@H]1OC[C@H]2O[N+](=O)[O-]` [isosorbide dinitrate] as the compound, how does the percent viability read?
The percent viability was 110%.

With `C#C[C@]1(O)CC[C@H]2[C@@H]3CCC4=C[C@@H](O)CC[C@@H]4[C@H]3CC[C@@]21C` [etynodiol] as the compound, how does the percent viability read?
Its percent viability is 301%.

With `CC(O)CN1CCN(CC(=O)[O-])CCN(CC(=O)[O-])CCN(CC(=O)[O-])CC1.[Gd+3]` (stereo not given) [gadoteridol] as the compound, how does the percent viability read?
Its percent viability is 210%.

Which percent viability does the source give for `CC[C@H](C(N)=O)N1CCCC1=O` [(R)-(+)-Etiracetam] here?
The percent viability was 253%.

Which percent viability does the source give for `c1ccc2c(c1)OCC(C1=NCCN1)O2` (stereo not given) [Idazoxan·HCl] here?
The percent viability was 235%.

`C#C[C@]1(O)CC[C@H]2[C@@H]3CCC4=CC(=O)CCC4=C3C=C[C@@]21CC` [gestrinone] was tested. Which percent viability did it give?
Its percent viability is 254%.

Which percent viability does the source give for `C=CCN1C[C@H](C(=O)N(CCCN(C)C)C(=O)NCC)C[C@@H]2c3cccc4[nH]cc(c34)C[C@H]21` [cabergoline] here?
Its percent viability is 166%.

With `CC(C)C[C@H](CN)CC(=O)O` [pregabalin] as the compound, how does the percent viability read?
The percent viability was 289%.

For `NC1=NCC(c2ccc(Cl)cc2)O1` (stereo not given) [clominorex], which percent viability is on record?
The percent viability was 272%.

How did the percent viability turn out when `Cc1ncsc1CCCl` [clomethiazole] was run?
The percent viability was 264%.

`C[CH2][Hg][S]c1ccccc1C(=O)[O-].[Na+]` [thiomersal] was tested. Which percent viability did it give?
The percent viability was 6.15%.

How did the percent viability turn out when `CN(C)[C@@H]1C(=O)C(C(N)=O)=C(O)[C@@]2(O)C(=O)C3=C(O)c4c(O)cccc4[C@@](C)(O)[C@H]3[C@H](O)[C@@H]12` was run?
Its percent viability is 126%.

How did the percent viability turn out when `CCCCC1C(=O)NC(=O)N(C2CCCCC2)C1=O` (stereo not given) [bucolome] was run?
Its percent viability is 158%.

`CCC(=O)C(CC(C)N(C)C)(c1ccccc1)c1ccccc1` (stereo not given) [Amidone] was tested. Which percent viability did it give?
Its percent viability is 336%.

Which percent viability does the source give for `Oc1ccc2c3c1O[C@H]1c4[nH]c5ccccc5c4C[C@@]4(O)[C@@H](C2)N(CC2CC2)CC[C@]314` [Naltrindole·HCl] here?
The percent viability was 303%.

Which percent viability does the source give for `CC(C)(N)Cc1ccccc1` [phentermine] here?
Its percent viability is 229%.

`C[C@]12C=CC(=O)C=C1CC[C@@H]1[C@@H]2CC[C@]2(C)OC(=O)CC[C@@H]12` [testolactone] was tested. Which percent viability did it give?
The percent viability was 77.1%.

Which percent viability does the source give for `NCC(O)c1ccc(O)cc1` (stereo not given) here?
The percent viability was 338%.

`C[C@]1(O)CC[C@H]2[C@@H]3CCC4=CC(=O)CC[C@]4(C)[C@@]3(F)[C@@H](O)C[C@@]21C` [fluoxymesterone] was tested. Which percent viability did it give?
Its percent viability is 120%.

For `C#CCN(C)[C@H](C)Cc1ccccc1` [selegiline], which percent viability is on record?
Its percent viability is 199%.

With `CC(CC(C(N)=O)(c1ccccc1)c1ccccc1)N(C)C` (stereo not given) [dimevamide] as the compound, how does the percent viability read?
The percent viability was 122%.

For `Fc1cccc(Br)c1NC1=NCCN1` [romifidine], which percent viability is on record?
Its percent viability is 243%.

`CC1=CC(=O)N2CC(=O)N(C)c3ccc(Cl)cc3C2(c2ccccc2)O1` (stereo not given) [ketazolam] was tested. Which percent viability did it give?
The percent viability was 76.6%.

How did the percent viability turn out when `CC[C@@]1(O)C(=O)OCc2c1cc1n(c2=O)Cc2cc3ccccc3nc2-1` [Camptothecin] was run?
The percent viability was 142%.

tested on: SARS-CoV-2 -1 PRF reporter mCherry-FSE-GFP(-1); test: mCherry (red) intensity as percent of control; higher = higher upstream reporter expression; settings: 10 µM; 24 h; HEK293T

`CC(=O)OC1CN2CCC1CC2` (stereo not given) [aceclidine] was tested. Which mCherry did it give?
Its mCherry is 87.6%.

`O=c1cccc2n1C[C@@H]1CNC[C@H]2C1` was tested. Which mCherry did it give?
The mCherry was 96%.

Which mCherry does the source give for `CN1CC[C@]23CCCC[C@H]2[C@H]1Cc1ccc(O)cc13` [levorphanol] here?
The mCherry was 105%.

With `CO[C@@]12CC[C@@]3(C[C@@H]1[C@](C)(O)C(C)(C)C)[C@H]1Cc4ccc(O)c5c4[C@@]3(CCN1CC1CC1)[C@H]2O5` [Buprenorphine] as the compound, how does the mCherry read?
Its mCherry is 86.8%.

Which mCherry does the source give for `Cc1ncc(CNC(=O)N(CCCl)N=O)c(N)n1` [nimustine] here?
The mCherry was 113%.

With `CCC1(c2ccccc2)C(=O)NC(=O)N(C(=O)c2ccccc2)C1=O` (stereo not given) [benzobarbital] as the compound, how does the mCherry read?
Its mCherry is 109%.

With `CC(=O)N(C)c1cccc(-c2ccnc3c(C(=O)c4cccs4)cnn23)c1` [indiplon] as the compound, how does the mCherry read?
Its mCherry is 110%.

`C[N+]1(C)[C@@H]2C[C@@H](OC(=O)[C@H](CO)c3ccccc3)C[C@H]1[C@@H]1O[C@@H]12` was tested. Which mCherry did it give?
The mCherry was 66.9%.

With `CNCC(=O)c1ccc(O)c(O)c1` [adrenalone] as the compound, how does the mCherry read?
The mCherry was 73.5%.

Which mCherry does the source give for `CCNC1=Nc2ccc(Cl)cc2C(C)(c2ccccc2)O1` (stereo not given) [etifoxine] here?
Its mCherry is 86.8%.

Which mCherry does the source give for `c1ccc2nc(N3CCNCC3)ccc2c1` [quipazine] here?
The mCherry was 100%.

For `CC[C@@H](C)C(=O)O[C@H]1[C@H](O)[C@H]2[C@@H](CN3C[C@@H](C)CC[C@H]3[C@@]2(C)O)[C@@H]2C[C@]34O[C@]5(O)[C@@H](OC(=O)[C@@](C)(O)CC)CC[C@@]3(C)[C@@H]5[C@@H](OC(C)=O)[C@@H](OC(C)=O)[C@H]4[C@@]21O`, which mCherry is on record?
The mCherry was 109%.

Which mCherry does the source give for `CN=C1CN(O)C(c2ccccc2)=c2cc(Cl)ccc2=N1` [Libritabs] here?
The mCherry was 113%.

Which mCherry does the source give for `CCOC(=O)C(c1c(O)c2ccccc2oc1=O)c1c(O)c2ccccc2oc1=O` [ethyl biscoumacetate] here?
Its mCherry is 60.4%.

How did the mCherry turn out when `C[C@H](N)[C@H](O)c1ccc(O)c(O)c1` was run?
Its mCherry is 117%.

`O=C1CC[C@@]2(O)[C@H]3Cc4ccc(O)c5c4[C@@]2(CCN3CC2CC2)[C@H]1O5` [naltrexone] was tested. Which mCherry did it give?
The mCherry was 79.9%.

With `O=[N+]([O-])O[C@H]1CO[C@H]2[C@@H]1OC[C@H]2O[N+](=O)[O-]` [isosorbide dinitrate] as the compound, how does the mCherry read?
The mCherry was 110%.

How did the mCherry turn out when `C#C[C@]1(O)CC[C@H]2[C@@H]3CCC4=C[C@@H](O)CC[C@@H]4[C@H]3CC[C@@]21C` [etynodiol] was run?
The mCherry was 54.6%.

For `CC(O)CN1CCN(CC(=O)[O-])CCN(CC(=O)[O-])CCN(CC(=O)[O-])CC1.[Gd+3]` (stereo not given) [gadoteridol], which mCherry is on record?
Its mCherry is 123%.

With `CC[C@H](C(N)=O)N1CCCC1=O` [(R)-(+)-Etiracetam] as the compound, how does the mCherry read?
The mCherry was 104%.

`c1ccc2c(c1)OCC(C1=NCCN1)O2` (stereo not given) [Idazoxan·HCl] was tested. Which mCherry did it give?
The mCherry was 80.3%.

Which mCherry does the source give for `C#C[C@]1(O)CC[C@H]2[C@@H]3CCC4=CC(=O)CCC4=C3C=C[C@@]21CC` [gestrinone] here?
Its mCherry is 90.4%.

Which mCherry does the source give for `C=CCN1C[C@H](C(=O)N(CCCN(C)C)C(=O)NCC)C[C@@H]2c3cccc4[nH]cc(c34)C[C@H]21` [cabergoline] here?
Its mCherry is 67%.

How did the mCherry turn out when `CC(C)C[C@H](CN)CC(=O)O` [pregabalin] was run?
Its mCherry is 102%.

With `NC1=NCC(c2ccc(Cl)cc2)O1` (stereo not given) [clominorex] as the compound, how does the mCherry read?
Its mCherry is 92.7%.

Which mCherry does the source give for `Cc1ncsc1CCCl` [clomethiazole] here?
The mCherry was 102%.

Which mCherry does the source give for `C[CH2][Hg][S]c1ccccc1C(=O)[O-].[Na+]` [thiomersal] here?
Its mCherry is 14%.

For `CN(C)[C@@H]1C(=O)C(C(N)=O)=C(O)[C@@]2(O)C(=O)C3=C(O)c4c(O)cccc4[C@@](C)(O)[C@H]3[C@H](O)[C@@H]12`, which mCherry is on record?
Its mCherry is 96%.

How did the mCherry turn out when `CCCCC1C(=O)NC(=O)N(C2CCCCC2)C1=O` (stereo not given) [bucolome] was run?
The mCherry was 85%.

With `CCC(=O)C(CC(C)N(C)C)(c1ccccc1)c1ccccc1` (stereo not given) [Amidone] as the compound, how does the mCherry read?
Its mCherry is 100%.

With `Oc1ccc2c3c1O[C@H]1c4[nH]c5ccccc5c4C[C@@]4(O)[C@@H](C2)N(CC2CC2)CC[C@]314` [Naltrindole·HCl] as the compound, how does the mCherry read?
Its mCherry is 71.2%.

Which mCherry does the source give for `CC(C)(N)Cc1ccccc1` [phentermine] here?
The mCherry was 94.4%.

With `C[C@]12C=CC(=O)C=C1CC[C@@H]1[C@@H]2CC[C@]2(C)OC(=O)CC[C@@H]12` [testolactone] as the compound, how does the mCherry read?
The mCherry was 129%.

With `NCC(O)c1ccc(O)cc1` (stereo not given) as the compound, how does the mCherry read?
The mCherry was 105%.

For `C[C@]1(O)CC[C@H]2[C@@H]3CCC4=CC(=O)CC[C@]4(C)[C@@]3(F)[C@@H](O)C[C@@]21C` [fluoxymesterone], which mCherry is on record?
The mCherry was 102%.

With `C#CCN(C)[C@H](C)Cc1ccccc1` [selegiline] as the compound, how does the mCherry read?
The mCherry was 94.4%.

With `CC(CC(C(N)=O)(c1ccccc1)c1ccccc1)N(C)C` (stereo not given) [dimevamide] as the compound, how does the mCherry read?
Its mCherry is 95.2%.

With `Fc1cccc(Br)c1NC1=NCCN1` [romifidine] as the compound, how does the mCherry read?
The mCherry was 98.8%.

How did the mCherry turn out when `CC1=CC(=O)N2CC(=O)N(C)c3ccc(Cl)cc3C2(c2ccccc2)O1` (stereo not given) [ketazolam] was run?
The mCherry was 129%.

How did the mCherry turn out when `CC[C@@]1(O)C(=O)OCc2c1cc1n(c2=O)Cc2cc3ccccc3nc2-1` [Camptothecin] was run?
The mCherry was 35.6%.
